Source: PubChem BioAssay AID652272 (Drosophila RNAi Screening Center, 2013)

Aim: 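Genes whose knock-down decreases or increases Hedgehog reporter output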 (primary screen)
System: Drosophila clone 8 (Cl8) cells
Reagents: long dsRNA against Drosophila genes
Measured: 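Firefly light from a Hedgehog-responsive ptc promoter reporter and Renilla reference light, both read on a plate reader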
Direction: firefly Hh reporter signal: higher = more ptc reporter light; Renilla reference signal: higher = more Renilla control light
Call rule: 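Hit when the z-score averaged over two replicates is under -2 or over +3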
Calls: active = hit: reporter lowered or raised; inactive = not a hit
In all, the deposit lists about 21,000 reagents; this is a random part of those with a known target gene and a result. Over the whole deposit, 503 (2.4%) are marked active. 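Raw plate light values, not normalised; calls rest on replicate z-scores that were not deposited; hits include reporter decreases as well as increases.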 Reagent sequences are not shown. The record does not give: the amount of reagent, the time to read-out.

predicted target | DRSC id | firefly Hh reporter signal, replicate 1 | firefly Hh reporter signal, replicate 2 | firefly Hh reporter signal, replicate 3 | Renilla reference signal, replicate 1 | Renilla reference signal, replicate 2 | call
eIF2A (GeneID 40431) | DRSC11825 | 97808 | 99335 | – | 4057 | 4081 | inactive
S-Lap1 (GeneID 38986) | DRSC10627 | 1.51e5 | 1.03e5 | – | 6450 | 4658 | inactive
Vps29 (GeneID 33295) | DRSC00666 | 1.00e5 | 59804 | – | 4220 | 2647 | inactive
Ide (GeneID 40248) | DRSC11867 | 85808 | 76247 | – | 3482 | 3064 | inactive
Mhc (GeneID 35007) | DRSC03367 | 91441 | 70875 | – | 2275 | 5955 | inactive
plu (GeneID 44848) | DRSC07665 | 67357 | 41208 | – | 1888 | 2917 | inactive
CG11714 (GeneID 3772566) | DRSC09857 | 1.01e5 | 48019 | – | 5272 | 2592 | inactive
CG15553 (GeneID 43677) | DRSC15091 | 1.03e5 | 1.42e5 | – | 3626 | 3888 | inactive
CG43182 (GeneID 12798293) | DRSC17668 | 4.81e5 | 1.65e5 | – | 25042 | 3264 | inactive
Prosalpha5 (GeneID 36951) | DRSC07514 | 31946 | 30519 | – | 2838 | 2099 | active
mbo (GeneID 41562) | DRSC16123 | 1.19e5 | 82871 | – | 5249 | 3741 | inactive
Tet (GeneID 38347) | DRSC08006 | 1.61e5 | 3.65e5 | – | 4141 | 12336 | inactive
Tet (GeneID 38347) | DRSC08550 | 2.03e5 | 96468 | – | 6435 | 2201 | inactive
Tet (GeneID 38347) | DRSC08646 | 77645 | 33066 | – | 2000 | 2250 | inactive
Sptr (GeneID 31781) | DRSC18719 | 86644 | 60356 | – | 2362 | 1904 | inactive
HUWE1 (GeneID 32510) | DRSC20089 | 65794 | 1.51e5 | – | 2373 | 8157 | inactive
CG15019 (GeneID 38542) | DRSC08473 | 45307 | 39143 | – | 4697 | 3672 | inactive
His2Av (GeneID 43229) | DRSC16702 | 1.35e5 | 81100 | – | 1672 | 1222 | active
Toll-7 (GeneID 37272) | DRSC07563 | 1.40e5 | 73766 | – | 3831 | 5299 | inactive
klar (GeneID 38067) | DRSC08718 | 1.61e5 | 1.19e5 | – | 6973 | 4889 | inactive
CG43193 (retired record) (GeneID 12798209) | DRSC20426 | 5.76e5 | 2.25e5 | – | 34528 | 4308 | inactive
Pitslre (GeneID 40292) | DRSC11874 | 56512 | 42667 | – | 3764 | 2755 | active
GC (GeneID 38194) | DRSC08396 | 65894 | 39977 | – | 1961 | 3064 | inactive
CG18537 (GeneID 37094) | DRSC06764 | 1.00e5 | 64914 | – | 2912 | 4400 | inactive
AlaRS (GeneID 34156) | DRSC01851 | 86641 | 66034 | – | 3777 | 1670 | inactive
DppIII (GeneID 40996) | DRSC16241 | 89681 | 1.37e5 | – | 2256 | 4429 | inactive
mRpL41 (GeneID 36688) | DRSC06257 | 78576 | 52965 | – | 1997 | 3146 | inactive
CG5819 (GeneID 37547) | DRSC04520 | 1.21e5 | 54885 | – | 2972 | 2220 | inactive
CG14234 (GeneID 32988) | DRSC19317 | 5.36e5 | 2.14e5 | – | 31762 | 5341 | inactive
CG14234 (GeneID 32988) | DRSC19589 | 57269 | 2.41e5 | – | 1014 | 9752 | inactive
GATAd (GeneID 34395) | DRSC02803 | 80788 | 39515 | – | 3721 | 1976 | inactive
geko (GeneID 50263) | DRSC10044 | 1.09e5 | – | – | 1531 | 5528 | inactive
geko (GeneID 50263) | DRSC10045 | 1.36e5 | – | – | 1026 | 6916 | inactive
Sprn (GeneID 39344) | DRSC10132 | 51493 | 39393 | 42871 | 4200 | 3136 | inactive
lok (GeneID 35288) | DRSC03567 | 89218 | 85637 | – | 3548 | 3864 | inactive
Tb (GeneID 43212) | DRSC15815 | 88309 | 94055 | – | 2443 | 2805 | inactive
CG6576 (GeneID 39003) | DRSC10663 | 65420 | 64747 | – | 7165 | 4610 | inactive
sut3 (GeneID 44268) | DRSC07702 | 69597 | 59969 | – | 1752 | 4810 | inactive
UQCR-C2 (GeneID 39846) | DRSC10405 | 82957 | – | – | 4432 | 2304 | inactive
CG8046 (GeneID 35936) | DRSC07059 | 89141 | 1.04e5 | – | 3605 | 3353 | inactive
sphinx1 (GeneID 318005) | DRSC10993 | 27808 | 66838 | – | 2946 | 4880 | inactive
SsRbeta (GeneID 39768) | DRSC11290 | 59943 | 43827 | – | 2506 | 2289 | inactive
mRpL44 (GeneID 40656) | DRSC12306 | 1.29e5 | 98692 | – | 4281 | 3429 | inactive
Sec10 (GeneID 42863) | DRSC17053 | 1.22e5 | 72139 | – | 4674 | 2646 | inactive
CG6607 (GeneID 42925) | DRSC16073 | 5.83e5 | 1.14e5 | – | 31467 | 3762 | inactive
CR11023 (GeneID 33155) | DRSC00302 | 1.48e5 | 85383 | – | 3548 | 1960 | inactive
axo (GeneID 43923) | DRSC08116 | 6.12e5 | 1.43e5 | – | 5845 | 5845 | inactive
axo (GeneID 43923) | DRSC08324 | 55862 | 35713 | – | 5097 | 2712 | inactive
axo (GeneID 43923) | DRSC08326 | 18364 | 15761 | – | 2128 | 1178 | inactive
gammaTub37C (GeneID 35199) | DRSC03535 | 80068 | 53632 | – | 3980 | 2790 | inactive
Dscam4 (GeneID 2769008) | DRSC08911 | 95416 | 1.91e5 | – | 3018 | 8569 | inactive
Dscam4 (GeneID 2769008) | DRSC08913 | 1.16e5 | 2.24e5 | – | 3456 | 9618 | inactive
Dscam4 (GeneID 2769008) | DRSC10031 | 30246 | 48155 | – | 4589 | 3024 | inactive
Dscam4 (GeneID 2769008) | DRSC10329 | 15363 | 34262 | – | 3715 | 2987 | inactive
Dscam4 (GeneID 2769008) | DRSC10765 | 80572 | 70944 | – | 7869 | 5240 | inactive
CG42514 (GeneID 8674108) | DRSC10428 | 66972 | 56228 | – | 2967 | 2217 | inactive
CG15225 (GeneID 37354) | DRSC04232 | 1.39e5 | 59660 | – | 3808 | 5773 | inactive
